Experimental data reported in PMC5496928, “Data driven polypharmacological drug design for lung cancer: analyses for targeting ALK, MET, and EGFR” (Journal of Cheminformatics, 2017).

Test system: EGFR (L858R) and EGFR (L858R, T790M)
Assay: scanKINETIC conclusions stated in text for both EGFR forms together
Assay type: binding
Details: two EGFR targets
Excerpt: Tests of the compounds confirm suitability for ALK + MET + EGFR polypharmacology optimization (Table 1). […] For compound 1, ^3 with the acrylamide function at the site corresponding to that of WZ4002, both ALK and MET binding were inhibited more weakly compared to EGFR binding. […] The sensitivity to the assay conditions seen for both forms of EGFR and uniformly tighter binding under the new assay conditions may indicate tighter binding for ALK and MET under these altered assay conditions as well.
The kinetics testing results (Table 1) support several further important conclusions. […] The simultaneous appearance of slow association and slow dissociation complicates the interpretation of the results, but the percentage values shown in Table 1 show the apparent residual amounts of compounds relative to bound values at 1 h. These values indicate retention of roughly half of compound 1, and nearly all of compound 2a, after dilution. […] The similarity of compound 2a to 2b and 1 with respect to structure and binding strength, differing only in the linker to the acrylamide binding group, is further evidence that that it is the covalent binding property that determines the difference in binding kinetics, rather than e.g. a slow conformational change of the target enzymes.
The three tricyclic compounds (1, 2a and 2b) were purchased from the company ARTTSynthesis (www.arttsynthesis.com). Tests for binding properties were performed by the company DiscoverX (www.discoverx.com), using a concentration of 1 µM against ALK, MET and EGFR variants L858R and L858R_T790M) using KdELECT and scanKINETIC from DiscoverX [124, 125].

| Compound | Kd tighter under scanKINETIC than in KdELECT assays |
| --- | --- |
| C=CC(=O)Nc1cccc(Nc2nc(Nc3ccccc3)ncc2Cl)c1 [compound 1, N‐(3‐{[5‐chloro‐2‐(phenylamino)pyrimidin‐4‐yl]amino}phenyl)prop‐2‐enamide] | 4-7 fold |
| C=CC(=O)Nc1cccc(Nc2ncc(Cl)c(Nc3ccccc3)n2)c1 [compound 2a, N‐(3‐{[5‐chloro‐4‐(phenylamino)pyrimidin‐2‐yl]amino}phenyl)prop‐2‐enamide] | approximately 2 fold |
| C=CC(=O)NCc1cccc(Nc2ncc(Cl)c(Nc3ccccc3)n2)c1 [compound 2b, N‐[(3‐{[5‐chloro‐4‐(phenylamino)pyrimidin‐2‐yl]amino}phenyl)methyl]prop‐2‐enamide] | 4-7 fold |
